Laboratory results reported in PubChem BioAssay AID1347075 (National Center for Advancing Translational Sciences (NCATS), 2019).
The campaign covered roughly 400,000 compounds. About 5,500 (1.4%) were called active. The shares of active, inactive and inconclusive entries below differ from those in the screen. Calls come from the whole dose curve; as a rule, active = well fitted cell-killing curve with a large enough effect; inconclusive = small, poorly fitted or top-dose-only effect, or effect the other way; inactive = flat fitted curve, though single readings scatter. Potencies of inconclusive entries are doubtful fits and often do not repeat.

Test: qHTS assay for MDR1-selective chemotherapeutics: Primary screen using the parental adenocarcinoma cell KB-3-1; note: nearly all actives have a fitted effect of over 60% in size
Conditions: KB-3-1 viability, CellTiter-Glo ATP luminescence, 72 h; activity change, negative = cytotoxic: at 46.1 µM (top of the series)
Method in brief: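 Parental KB-3-1 adenocarcinoma cells in phenol-red-free DMEM with 10% FBS were pin-treated with compounds at several concentrations, incubated 72 h at 37 °C, and viability read by CellTiter-Glo luminescence; concentration-effect curves were fitted after normalization.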
% is set by controls: 0 for no effect and ±100 for the full control effect; potency is the fitted concentration of half-maximal effect.

SMILES | Potency | activity change, negative = cytotoxic
O=c1[nH]c(=S)[nH]c(O)c1N=Nc1ccc2c(c1)OCO2 | inconclusive: 10.3 µM [cytotoxic, partial curve, poor fit] | 
O=Cc1cn(Cc2cccc([N+](=O)[O-])c2)c2ccccc12 | inconclusive: 5.8 µM [cytotoxic, partial curve] | 
COC(=O)C1=C(c2cccc(OC)c2OC)C[C@@H]2CC[C@H]1N2C(=O)N1CCC(O)CC1 |  | inactive: 5.18%
COc1ccc(-[n+]2c(-c3ccccc3)cc(-c3ccc(C)cc3)cc2-c2ccccc2)cc1 | active: 2.59 µM | 
CCC(C)NC(=O)c1c(N)n(Cc2ccc3c(c2)OCO3)c2nc3ccccc3nc12 (centres undefined) | inconclusive: 29.1 µM [cytotoxic, single point] | 
CC(O)C1C=CC=CC(=O)OC2CC3OC4C5OC5(C)CCC4(COC(=O)C4OC4(C)C(O)CO1)C2(C)C31CO1 (centres undefined) | active: 0.206 µM | 
C[C@H]1[C@H](OC(=O)CCC(=O)NCc2ccc(C(=O)O)cc2)O[C@@H]2O[C@@]3(C)CC[C@H]4[C@H](C)CC[C@@H]1C24OO3 | active: 8.2 µM | 
CCOc1ccc(N2C(=O)NC(=O)/C(=C\c3ccc(N4CCOCC4)cc3C)C2=O)cc1 | inconclusive: 14.6 µM [rising, partial curve, poor fit] | 
COC(=O)C1=C(c2cc3ccccc3s2)C[C@@H]2CC[C@H]1N2C(=O)N1CCOCC1 | inconclusive: 3.26 µM [cytotoxic, partial curve, poor fit] | 
CC12CCC(=O)C=C1CC(N1CC1)C1C2CCC2(C)C(O)CCC12 (centres undefined) | inconclusive: 29.1 µM [cytotoxic, single point] | 
O=C(c1ccc2c(c1)ncn2C1CCCCC1)N1CCC2(CC1)OCCO2 | inconclusive: 20.6 µM [cytotoxic, partial curve, poor fit] | 
Nc1c(C(=O)Nc2ccc(Br)cc2F)sc2nc3c(cc12)N1CCC3CC1 | inconclusive: 2.59 µM [cytotoxic, full curve] | 
CCOc1cccc(=NC2CCCCC2)c2c(C)n(C)c(C)c12 | active: 18.4 µM | 
COC(=O)C1=C(c2ccc3ccccc3c2)C[C@@H]2CC[C@H]1N2C(=O)NCc1ccc(C(F)(F)F)cc1 | inconclusive: 14.6 µM [cytotoxic, partial curve] | 
CC1Oc2cc3c(-c4c(O)cc(O)c5c(O)c6c(cc45)OC(C)C(C)C6=O)c(O)cc(O)c3c(O)c2C(=O)C1C (centres undefined) | inconclusive: 29.1 µM [cytotoxic, single point] | 
COC(=O)C1=C(c2ccc(F)cc2OCc2ccccc2)C[C@@H]2CC[C@H]1N2C(=O)NCCOc1ccc(OC)cc1 | inconclusive: 25.9 µM [cytotoxic, single point] | 
COc1ccc(CN2C(=O)NC(=O)/C(=C/c3ccc([N+](=O)[O-])s3)C2=O)cc1 |  | inactive: -9.81%
N#CC1=C(N)Oc2c(c(=O)oc3ccccc23)C1c1ccc(OC(=O)N2CCOCC2)cc1 (centres undefined) |  | inactive: 8.85%
Cc1ccc(Cn2c(C)c3cnn(CC(=O)N4CCC5(CC4)OCCO5)c(=O)c3c2C)cc1 | inconclusive: 20.6 µM [cytotoxic, single point] | 
Cc1cccc(-c2nc3ccc(C(=O)N4CCC5(CC4)OCCO5)cc3nc2-c2cccc(C)c2)c1 | inconclusive: 29.1 µM [cytotoxic, single point] | 

3 entries picked at random from those above:
SMILES | Potency | activity change, negative = cytotoxic
Cc1cccc(-c2nc3ccc(C(=O)N4CCC5(CC4)OCCO5)cc3nc2-c2cccc(C)c2)c1 | inconclusive: 29.1 µM [cytotoxic, single point] | 
O=C(c1ccc2c(c1)ncn2C1CCCCC1)N1CCC2(CC1)OCCO2 | inconclusive: 20.6 µM [cytotoxic, partial curve, poor fit] | 
Cc1ccc(Cn2c(C)c3cnn(CC(=O)N4CCC5(CC4)OCCO5)c(=O)c3c2C)cc1 | inconclusive: 20.6 µM [cytotoxic, single point] | 

The list goes on.

SMILES | Potency | activity change, negative = cytotoxic
CCOC(=O)[C@]12Cc3cc4ccccc4cc3[C@H]1N(Cc1ccccc1)C(=O)c1ccccc12 | active: 5.17 µM | 
C[C@H]1CCC/C=C/C2C[C@H](O)CC2[C@H](O)/C=C/C(=O)O1 (some centres undefined) | active: 0.0259 µM | 
C#CCCC[C@@H]1OC(=O)CNC(=O)C([C@@H](C)CC)NC(=O)[C@@H]2CCCN2C(=O)C([C@@H](C)CC)OC(=O)[C@H](Cc2ccccc2)N(C)C(=O)[C@H](C(C)C)NC(=O)C1(C)C (some centres undefined) |  | inactive: -23.7%
CCCNC1=C(C)C(=O)C2=C(C1=O)C(COC(N)=O)[C@]1(OC)C3NC3CN21 (some centres undefined) | active: 18.4 µM | 
CCCCCCCSc1cc(OC)c(CCNC)cc1OC | inconclusive: 29.1 µM [cytotoxic, single point] | 
Cc1cc(C)[n+](C2C3CC4CC(C3)CC2C4)o1 (centres undefined) |  | inactive: 0%
COC(=O)C1=C(c2ccc(F)cc2OCc2ccccc2)C[C@@H]2CC[C@H]1N2C(=O)NCc1ccc(C)cc1 | inconclusive: 29.1 µM [cytotoxic, single point] | 
O=S(=O)(NC1CCCC1)OCC(Cl)(Cl)Cl |  | inactive: 0.292%
CCCCCCn1c(O)c(C=NC2CCN(Cc3ccccc3)CC2)c(=O)[nH]c1=O | inconclusive: 20.6 µM [cytotoxic, partial curve] | 
CC1=C(C/C(C)=C/c2ccccc2)/C(=C/CO)[C@@H]2OC(=O)O[C@]2(C)C12CC2 |  | inactive: 2.1%
Ic1ccccc1CN[C@@H]1C2CCN(CC2)[C@@H]1C(c1ccccc1)c1ccccc1 | inconclusive: 29.1 µM [cytotoxic, single point] | 
CN(CC(=O)Nc1ccccc1-c1ccccc1)C1CCCCC1 | inconclusive: 29.1 µM [cytotoxic, single point] | 
C=Cc1cc(OC)c2c(c1)c(=O)oc1c2cc(OC)c2c(O)ccc(C3OC(C)C(O)C(C)(O)C3O)c21 (centres undefined) | inconclusive: 4.61 µM [cytotoxic, full curve, poor fit] | 
Cc1cccc(C)c1NC(=O)c1cccn(Cc2ccc3c(c2)OC(F)(F)O3)c1=O | inconclusive: 29.1 µM [cytotoxic, single point] | 
CN(C(=O)CN1CC=C(c2ccccc2)CC1)c1c(N)n(Cc2ccccc2)c(=O)[nH]c1=O |  | inactive: -1.76%
CN(C)CC1Oc2ccccc2OC1(O)c1ccccc1 (centres undefined) | inconclusive: 18.4 µM [cytotoxic, single point] | 
C[C@H]1CN([C@@H](C)CO)C(=O)CCCn2nncc2CO[C@H]1CN(C)C(=O)Oc1cccc2ccccc12 |  | inactive: 0%
O=c1[nH]c2ccccc2n1C1CCN(C(c2cccs2)c2nnnn2Cc2ccccc2)CC1 (centres undefined) | inconclusive: 29.1 µM [cytotoxic, single point] | 
CCc1ccc(CNCCc2ccc(F)cc2)cc1 | inconclusive: 32.6 µM [cytotoxic, single point] | 
